Here are results for three molecules from publication PMC11050252.

No constants are given. Whether binding was seen depends on the method and setting. Binding seen in cells or lysates may run through a third protein. For some of these results: Binding calls can cover weak binding; strength is not graded here.

Assay [1] deals with T1, calmodulin-dependent protein kinase 4 (CaMK4) (mouse (endogenous in MVEC)) (UniProt P08414).
T1 sequence: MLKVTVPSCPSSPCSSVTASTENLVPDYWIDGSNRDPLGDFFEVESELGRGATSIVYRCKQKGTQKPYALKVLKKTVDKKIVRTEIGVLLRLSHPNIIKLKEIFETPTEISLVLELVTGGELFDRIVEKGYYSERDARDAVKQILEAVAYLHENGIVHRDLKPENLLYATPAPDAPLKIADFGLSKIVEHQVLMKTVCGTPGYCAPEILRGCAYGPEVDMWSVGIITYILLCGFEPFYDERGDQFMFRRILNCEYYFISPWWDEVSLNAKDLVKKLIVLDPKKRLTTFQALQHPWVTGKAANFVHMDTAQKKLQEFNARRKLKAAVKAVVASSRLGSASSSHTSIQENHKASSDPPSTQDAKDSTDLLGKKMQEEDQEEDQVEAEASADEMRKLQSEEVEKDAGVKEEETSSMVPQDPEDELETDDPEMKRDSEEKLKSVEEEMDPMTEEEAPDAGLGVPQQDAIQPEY
Nature of the assay: condition: only untreated and vehicle control treated cells (no necroptosis induction); co-IP; endogenous proteins of untreated and vehicle control treated mouse MVEC (no necroptosis induction); RIPA lysate, antibody, protein G agarose, Western blot. (In western blotting, separated proteins are transferred to a membrane and probed.)

The target in assay [2] is T1, calmodulin-dependent protein kinase 4 (CaMK4) (mouse (endogenous in MVEC)). The assay is described as follows: co-IP; endogenous proteins of mouse MVEC induced to undergo necroptosis (TNFα + Smac mimetic BV6 + caspase-8 inhibitor z-IETD), collected after 4 h; RIPA lysate, 1 μg antibody 1-2 h at 4 °C, protein G agarose overnight at 4 °C, Western blot; rabbit IgG as control; in some panels cells treated 24 h before with vehicle or siRNA to CaMK1, CaMK2, CaMK4 or PGAM5.

Assay [3] deals with calmodulin-dependent protein kinase 2 (CaMK2) (mouse (endogenous in MVEC)). The assay is described as above.

With “calmodulin-dependent protein kinase 2 (CaMK2) (mouse (endogenous in MVEC))”, the results for the binding result in assay [1] and in assay [2] were “no binding” and “binds weakly”, respectively.

B1: phosphoglycerate mutase 5 (PGAM5) (protein, UniProt Q8BX10 1-288)
chain: MAFRQALQLAACGLAGGSAAVLFSAVAVGKPRGGGDADTRATEPPAWTGARAGRGVWDTNWDRREPLSLINLKKRNVESGEDELTSRLDHYKAKATRHIFLIRHSQYHVDGSLEKDRTLTPLGREQAELTGLRLASLGLKFNKIVHSSMTRAVETTDIISKHLPGVSRVSTDLLREGAPIEPDPPVSHWKPEAVQYYEDGARIEAAFRNYIHRADARQEEDSYEIFICHANVIRYIVCRALQFPPEGWLRLSLNNGSITHLVIRPNGRVALRTLGDTGFMPPDKITRS
As for B1, the binding entry in assay [3] is on record as “binds”.

B2: calmodulin-dependent protein kinase 4 (CaMK4) (protein, UniProt P08414 1-469)
chain: T1 sequence
Turning to B2, the binding entry in assay [3] is on record as “binds”.
